From patent US6846801B1, “Systemic administration of a therapeutic preparation” (AstraZeneca AB, priority 1993, dated 2005)

Test system: rats
Test: Rat model: powder inhaled, blood glucose compared with insulin formulations without enhancer
Assay type: in vivo
Conditions: w/w of insulin/enhancer mixture
Procedure: Each of the compounds listed in Table III was tested for its ability to enhance uptake of insulin, and thus affect blood glucose levels, in a rat model. Various forms of insulin were employed: recombinant or semisynthetic human or bovine. Each formulation was prepared as above, drying and processing the insulin/enhancer or insulin/enhancer/lactose solution to produce an inhalable powder.
The powder was administered to rats by inhalation, and the blood glucose levels of the rats were subsequently monitored. These levels were compared to the corresponding values obtained from rats which had inhaled insulin formulations without enhancer.

SMILES: CCCCCCCCCC(=O)[O-].[Na+] [Sodium caprate]
- lowest effective concentration of sodium caprate relative to insulin: 15-25% and 20-25%

Where “and” joins values, the source holds several entries; their conditions need not be identical. Identical values can stand only once.
